According to patent US20210231669A1:
No constants are given. Whether binding was seen depends on the method and setting. Some binding calls cover weakened binding; strength is not graded here. Tags and fused reporters may be left off the sequences shown.

T1: His-MRS (human) (UniProt P56192)
T1 sequence: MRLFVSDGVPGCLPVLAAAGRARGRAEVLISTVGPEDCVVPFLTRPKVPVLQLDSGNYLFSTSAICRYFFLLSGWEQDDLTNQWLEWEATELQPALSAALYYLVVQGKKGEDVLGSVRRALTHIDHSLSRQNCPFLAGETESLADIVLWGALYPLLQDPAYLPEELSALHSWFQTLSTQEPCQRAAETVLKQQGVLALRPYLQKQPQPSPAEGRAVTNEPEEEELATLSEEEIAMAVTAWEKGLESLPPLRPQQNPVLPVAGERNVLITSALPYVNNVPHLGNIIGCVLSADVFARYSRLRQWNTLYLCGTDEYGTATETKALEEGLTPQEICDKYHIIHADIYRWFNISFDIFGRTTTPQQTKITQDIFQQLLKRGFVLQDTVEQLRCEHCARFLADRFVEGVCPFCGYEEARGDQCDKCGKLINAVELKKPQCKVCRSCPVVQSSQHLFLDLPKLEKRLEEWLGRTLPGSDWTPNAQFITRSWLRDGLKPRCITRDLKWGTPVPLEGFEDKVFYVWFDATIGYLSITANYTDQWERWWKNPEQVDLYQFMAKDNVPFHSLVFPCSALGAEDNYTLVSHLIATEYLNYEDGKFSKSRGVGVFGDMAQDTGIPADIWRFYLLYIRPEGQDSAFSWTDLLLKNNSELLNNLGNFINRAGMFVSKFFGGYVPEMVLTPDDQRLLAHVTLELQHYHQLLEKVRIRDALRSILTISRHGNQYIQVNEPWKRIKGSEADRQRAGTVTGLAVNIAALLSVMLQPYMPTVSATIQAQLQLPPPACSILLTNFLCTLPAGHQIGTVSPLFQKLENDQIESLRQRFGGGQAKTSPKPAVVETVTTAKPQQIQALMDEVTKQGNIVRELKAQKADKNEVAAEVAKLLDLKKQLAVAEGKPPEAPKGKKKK


Experiments:
[1] = target: T1, His-MRS (human); assay: ELISA, protein coated at 1 µg/ml, antibody 500 ng/ml
[2] = target: T1, His-MRS (human); assay: ELISA, protein coated at 1 µg/ml, antibody at 500 ng/ml, HRP anti-mouse IgG, absorbance at 450 nm

| binding [1] | binding [2] | Binder |
| --- | --- | --- |
| binds | binds | 1E8 antibody (anti-MRS monoclonal antibody, whole 1E8 IgG) (antibody, V domains shown) VH: DVKLQESGPGLVNPSQSLSLTCTVTGYSITSDYAWNWIRQFPGNKLEWMGYISYSGRTSYKSSLKSRISITRDTSKNQFFLELNSVTTEDTATYYCARDYGNFVGYFDVWGAGTTVTVSS VL: DIVMTQSPSSLAVSVGEKVTMSCKSSQSLLYSSNQKNYLAWYQQKPGQSPKLLIYWASTRESGVPDRFTGSGSGTEFTLTISSVKAEDLAVYYCQQYYSYPTFGGGTKLEIKA |
| binds | binds | 8A12 antibody (anti-MRS monoclonal antibody, whole 8A12 IgG) (antibody, V domains shown) VH: DVKLQESGPGLVKPSQSLSLTCTVTGYSITSEYAWTWIRQFPGNKLEWMGYINYNGNTNLNPSLKSRISIIRDTSKNQFFLQLNSVTTEDTATYYCARSLWPRGWFAYWGQGTLVTVSA VL: DIQMTQSPSSMYASLGERVTITCKASQDINSYLSWFQQKPGKSPKTLMYRANRLVDGVPSRFSGSGSGQDYSLTISSLEYEDMGIYYCLQYDEFPRTFGGGTKLEIKA |
